Data taken from patent US8143212B2 (Vicuron Pharmaceuticals Inc., priority 2002, dated 2012).
For at least one compound, name, drawing or mass did not settle the structure.

Tested on: catheter-related blood stream infection (CR-BSI) due to gram-positive bacterial pathogens
Assay: CR-BSI trial: efficacy (overall, clinical, microbiological response)
Type: in vivo, human
Settings: microbiological ITT population at TOC; dalbavancin 1000 mg Day 1 + 500 mg Day 8 IV; vancomycin 1000 mg IV every 12 hours
Protocol: Patients with CR-BSI due to suspected or known Gram-positive pathogen(s) who met the inclusion/exclusion criteria were randomized to one of two treatment arms in this open-label, comparative, multi-center study. Dalbavancin was administered once weekly in weekly dalbavancin and comparator (vancomycin) was administered daily in vancomycin. Catheter removal was required for patients with Staphylococcus aureus infection; catheter management was left to the Investigator's discretion for patients with coagulase-negative staphylococci (CoNS) infection. Efficacy was clinically based on the improvement or resolution of clinical signs and symptoms of CR-BSI such that no additional antibacterials were warranted, and microbiologically on the eradication or presence of the baseline or other pathogens.
The treatment lasted for 14 days for patients with S. aureus infection, and 7 to 14 days for all other pathogens. […] Vancomycin was administered intravenously with a 1000 mg dose every 12 hours (or dose-adjusted based on drug levels).
Efficacy was evaluated based on clinical and microbiological responses.

CN[C@H]1C(=O)N[C@@H]2Cc3ccc(cc3)Oc3cc4cc(c3O[C@@H]3O[C@H](C(=O)O)[C@@H](O)[C@H](O)[C@H]3NC(=O)CCCCCCCCC(C)C)Oc3ccc(cc3Cl)[C@@H](O)[C@@H]3NC(=O)[C@H](NC(=O)[C@@H]4NC(=O)[C@@H](NC2=O)c2cc(cc(O)c2Cl)Oc2cc1ccc2O)c1ccc(O)c(c1)-c1c(O[C@H]2O[C@H](CO)[C@@H](O)[C@H](O)[C@@H]2O)cc(O)cc1[C@@H](C(=O)NCCCN(C)C)NC3=O [Dalbavancin]
overall response success rate: 87.0%
